Experimental data taken from PMC12774657.
These are yes or no findings as the source states them, for the method shown. In cells and extracts the contact can be indirect. Here binding means that the protein was enriched with, or labelled near, the bait; the list need not be complete.

The chains behind the UniProt entries cited, without tags or fusion partners. Where a name states a change or a piece, a line headed by the entry shows the natural chain unless it says otherwise. A line that says so, or that is headed by a name, gives the form on record, which may keep a tag or linker. Residues count along the entry.
UniProt P81133: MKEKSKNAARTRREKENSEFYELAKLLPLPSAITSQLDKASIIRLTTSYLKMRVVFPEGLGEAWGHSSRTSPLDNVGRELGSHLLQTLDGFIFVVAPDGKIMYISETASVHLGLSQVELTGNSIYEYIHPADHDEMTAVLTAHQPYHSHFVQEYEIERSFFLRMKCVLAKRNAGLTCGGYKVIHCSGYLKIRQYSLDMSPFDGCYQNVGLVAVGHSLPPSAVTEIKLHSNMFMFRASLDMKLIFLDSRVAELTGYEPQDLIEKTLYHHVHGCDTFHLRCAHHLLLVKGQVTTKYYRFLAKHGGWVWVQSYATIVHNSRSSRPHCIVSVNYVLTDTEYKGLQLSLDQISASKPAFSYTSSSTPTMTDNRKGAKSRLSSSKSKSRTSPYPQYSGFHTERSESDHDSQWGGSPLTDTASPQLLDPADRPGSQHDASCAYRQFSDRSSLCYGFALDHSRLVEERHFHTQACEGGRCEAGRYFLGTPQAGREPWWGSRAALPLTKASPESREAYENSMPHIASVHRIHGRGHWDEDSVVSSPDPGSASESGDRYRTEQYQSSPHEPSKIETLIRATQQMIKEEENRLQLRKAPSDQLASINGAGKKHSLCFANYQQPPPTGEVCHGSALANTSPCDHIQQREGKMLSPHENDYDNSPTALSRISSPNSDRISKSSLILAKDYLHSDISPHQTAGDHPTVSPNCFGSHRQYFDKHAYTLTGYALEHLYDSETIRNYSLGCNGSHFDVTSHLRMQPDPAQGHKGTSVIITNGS
hSim1.3xFlag2xStrep(1–348): residues 1-348 of P81133
hSim1(R171H).3xFlag2xStrep(1–348) (P81133, form named): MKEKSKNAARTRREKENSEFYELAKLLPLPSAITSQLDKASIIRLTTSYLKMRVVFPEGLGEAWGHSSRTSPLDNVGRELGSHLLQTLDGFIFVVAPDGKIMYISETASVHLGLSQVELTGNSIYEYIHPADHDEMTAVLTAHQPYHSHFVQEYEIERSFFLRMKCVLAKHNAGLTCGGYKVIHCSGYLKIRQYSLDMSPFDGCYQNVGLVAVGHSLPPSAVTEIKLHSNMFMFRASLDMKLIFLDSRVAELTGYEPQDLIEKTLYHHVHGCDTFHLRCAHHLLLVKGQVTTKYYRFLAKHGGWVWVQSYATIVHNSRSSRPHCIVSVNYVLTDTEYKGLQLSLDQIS
UniProt P27540: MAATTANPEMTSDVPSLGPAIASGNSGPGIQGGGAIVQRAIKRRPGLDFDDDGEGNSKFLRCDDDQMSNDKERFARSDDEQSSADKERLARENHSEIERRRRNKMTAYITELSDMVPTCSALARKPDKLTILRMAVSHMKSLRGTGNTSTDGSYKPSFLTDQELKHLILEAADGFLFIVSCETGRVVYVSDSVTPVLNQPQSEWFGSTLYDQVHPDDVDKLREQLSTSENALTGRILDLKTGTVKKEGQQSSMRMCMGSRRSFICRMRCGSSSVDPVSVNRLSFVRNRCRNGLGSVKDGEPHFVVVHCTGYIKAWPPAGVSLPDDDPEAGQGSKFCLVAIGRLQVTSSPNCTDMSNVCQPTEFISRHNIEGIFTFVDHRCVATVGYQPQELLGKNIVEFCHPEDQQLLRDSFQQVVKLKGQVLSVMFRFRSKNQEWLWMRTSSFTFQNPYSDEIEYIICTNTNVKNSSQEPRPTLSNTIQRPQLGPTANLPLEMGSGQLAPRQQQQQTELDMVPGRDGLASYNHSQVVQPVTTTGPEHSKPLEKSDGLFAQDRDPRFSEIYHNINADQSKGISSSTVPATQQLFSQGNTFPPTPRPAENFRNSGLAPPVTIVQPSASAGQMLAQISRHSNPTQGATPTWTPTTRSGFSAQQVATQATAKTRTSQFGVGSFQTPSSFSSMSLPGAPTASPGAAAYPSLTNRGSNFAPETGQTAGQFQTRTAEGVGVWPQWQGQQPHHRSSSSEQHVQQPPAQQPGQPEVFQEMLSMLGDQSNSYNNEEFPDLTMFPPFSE

Experiments:
[1] = biological target: hSIM1-2×HA-3×Flag, full length (human) (UniProt P81133); assay: affinity purification with mass spectrometry; native, no cross-linker: nuclear extract (420 mM KCl, diluted to ~280 mM KCl) of stable HEK293T cells with full-length SIM1-2×HA-3×Flag (WT or R171H); tandem Flag M2 then HA resin
[2] = biological target: hSIM1.R171H-2xHA-3×Flag, full length (human) (UniProt P81133); assay: as above
[3] = biological target: hSIM1-2×HA-3×Flag, full length (human) (UniProt P81133); assay: affinity purification with mass spectrometry; full-length SIM1-2×HA-3×Flag (WT or R171H) in stable HEK293T cells; in-cell DSP cross-linking; whole cell lysate; tandem Flag M2 then HA resin; parent HEK293T as mock
[4] = biological target: hSIM1.R171H-2xHA-3×Flag, full length (human) (UniProt P81133); assay: as above
[5] = biological target: hSim1.3xFlag2xStrep(1–348) (human) (UniProt P81133); assay: affinity purification with mass spectrometry; N-terminal domain: HEK293T co-transfected with hSim1(1–348) 3xFlag2xStrep (WT or R171H) and hARNT2(1-455)-Myc; in-cell DSP cross-linking; whole cell lysate in 420 mM NaCl, 1% Triton X-100; Flag resin, eluted with 3×Flag peptide; mock purification subtracted
[6] = biological target: hSim1(R171H).3xFlag2xStrep(1–348) (human) (UniProt P81133); assay: as above

Measured: binding

ARNT (endogenous in HEK293T cells) (from UniProt P27540 1-789)
binds: all assays above
